These are yes or no findings as the source states them, for the method shown. In cells and extracts the contact can be indirect. These calls come from enrichment with a bait or labelling near it, and not all partners need be listed.

By UniProt entry, the sequences of proteins in these tests, tags left out. Where a name states a change or a piece, a line headed by the entry shows the natural chain unless it says otherwise.
UniProt P40238: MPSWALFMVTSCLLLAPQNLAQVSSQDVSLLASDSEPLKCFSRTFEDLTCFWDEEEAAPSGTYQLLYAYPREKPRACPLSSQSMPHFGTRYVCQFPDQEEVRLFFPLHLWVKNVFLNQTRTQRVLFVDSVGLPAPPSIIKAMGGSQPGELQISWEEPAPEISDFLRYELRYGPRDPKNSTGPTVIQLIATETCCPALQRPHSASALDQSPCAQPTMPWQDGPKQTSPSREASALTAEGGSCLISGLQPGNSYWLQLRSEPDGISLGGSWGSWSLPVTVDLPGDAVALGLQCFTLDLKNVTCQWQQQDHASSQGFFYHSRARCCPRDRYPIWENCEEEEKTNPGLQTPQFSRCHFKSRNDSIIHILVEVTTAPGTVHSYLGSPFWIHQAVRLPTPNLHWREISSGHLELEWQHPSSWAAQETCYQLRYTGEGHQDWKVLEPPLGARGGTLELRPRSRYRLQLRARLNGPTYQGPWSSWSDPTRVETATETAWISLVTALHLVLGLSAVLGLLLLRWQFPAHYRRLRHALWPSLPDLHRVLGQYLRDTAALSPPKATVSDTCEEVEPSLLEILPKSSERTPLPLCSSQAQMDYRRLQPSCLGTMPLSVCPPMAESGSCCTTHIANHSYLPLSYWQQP
UniProt P52732: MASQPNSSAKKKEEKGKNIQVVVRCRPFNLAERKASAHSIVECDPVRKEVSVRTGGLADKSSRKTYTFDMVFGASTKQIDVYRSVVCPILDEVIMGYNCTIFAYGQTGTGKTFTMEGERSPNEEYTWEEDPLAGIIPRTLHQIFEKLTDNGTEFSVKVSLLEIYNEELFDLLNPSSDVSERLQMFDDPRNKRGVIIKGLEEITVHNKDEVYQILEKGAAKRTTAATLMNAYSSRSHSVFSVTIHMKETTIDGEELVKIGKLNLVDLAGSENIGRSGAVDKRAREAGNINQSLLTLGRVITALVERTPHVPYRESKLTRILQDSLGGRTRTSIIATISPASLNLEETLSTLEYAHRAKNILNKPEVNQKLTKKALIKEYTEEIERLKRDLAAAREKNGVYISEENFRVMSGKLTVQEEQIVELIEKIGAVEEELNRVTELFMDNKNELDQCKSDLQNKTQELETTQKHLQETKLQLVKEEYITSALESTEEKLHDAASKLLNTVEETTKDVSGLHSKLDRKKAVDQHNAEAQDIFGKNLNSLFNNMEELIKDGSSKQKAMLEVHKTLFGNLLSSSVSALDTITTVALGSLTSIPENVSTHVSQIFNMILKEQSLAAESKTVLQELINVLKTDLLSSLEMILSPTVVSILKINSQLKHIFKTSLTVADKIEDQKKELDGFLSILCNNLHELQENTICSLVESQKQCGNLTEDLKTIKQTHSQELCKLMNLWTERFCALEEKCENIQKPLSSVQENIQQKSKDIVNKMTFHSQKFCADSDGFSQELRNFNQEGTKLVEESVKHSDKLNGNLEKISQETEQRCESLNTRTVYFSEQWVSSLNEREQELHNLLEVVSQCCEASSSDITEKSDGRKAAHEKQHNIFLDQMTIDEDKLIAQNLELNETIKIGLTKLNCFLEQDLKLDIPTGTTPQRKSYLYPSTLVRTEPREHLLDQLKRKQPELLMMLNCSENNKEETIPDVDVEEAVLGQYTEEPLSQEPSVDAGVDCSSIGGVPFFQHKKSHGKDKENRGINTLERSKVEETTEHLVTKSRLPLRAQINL
UniProt P35580: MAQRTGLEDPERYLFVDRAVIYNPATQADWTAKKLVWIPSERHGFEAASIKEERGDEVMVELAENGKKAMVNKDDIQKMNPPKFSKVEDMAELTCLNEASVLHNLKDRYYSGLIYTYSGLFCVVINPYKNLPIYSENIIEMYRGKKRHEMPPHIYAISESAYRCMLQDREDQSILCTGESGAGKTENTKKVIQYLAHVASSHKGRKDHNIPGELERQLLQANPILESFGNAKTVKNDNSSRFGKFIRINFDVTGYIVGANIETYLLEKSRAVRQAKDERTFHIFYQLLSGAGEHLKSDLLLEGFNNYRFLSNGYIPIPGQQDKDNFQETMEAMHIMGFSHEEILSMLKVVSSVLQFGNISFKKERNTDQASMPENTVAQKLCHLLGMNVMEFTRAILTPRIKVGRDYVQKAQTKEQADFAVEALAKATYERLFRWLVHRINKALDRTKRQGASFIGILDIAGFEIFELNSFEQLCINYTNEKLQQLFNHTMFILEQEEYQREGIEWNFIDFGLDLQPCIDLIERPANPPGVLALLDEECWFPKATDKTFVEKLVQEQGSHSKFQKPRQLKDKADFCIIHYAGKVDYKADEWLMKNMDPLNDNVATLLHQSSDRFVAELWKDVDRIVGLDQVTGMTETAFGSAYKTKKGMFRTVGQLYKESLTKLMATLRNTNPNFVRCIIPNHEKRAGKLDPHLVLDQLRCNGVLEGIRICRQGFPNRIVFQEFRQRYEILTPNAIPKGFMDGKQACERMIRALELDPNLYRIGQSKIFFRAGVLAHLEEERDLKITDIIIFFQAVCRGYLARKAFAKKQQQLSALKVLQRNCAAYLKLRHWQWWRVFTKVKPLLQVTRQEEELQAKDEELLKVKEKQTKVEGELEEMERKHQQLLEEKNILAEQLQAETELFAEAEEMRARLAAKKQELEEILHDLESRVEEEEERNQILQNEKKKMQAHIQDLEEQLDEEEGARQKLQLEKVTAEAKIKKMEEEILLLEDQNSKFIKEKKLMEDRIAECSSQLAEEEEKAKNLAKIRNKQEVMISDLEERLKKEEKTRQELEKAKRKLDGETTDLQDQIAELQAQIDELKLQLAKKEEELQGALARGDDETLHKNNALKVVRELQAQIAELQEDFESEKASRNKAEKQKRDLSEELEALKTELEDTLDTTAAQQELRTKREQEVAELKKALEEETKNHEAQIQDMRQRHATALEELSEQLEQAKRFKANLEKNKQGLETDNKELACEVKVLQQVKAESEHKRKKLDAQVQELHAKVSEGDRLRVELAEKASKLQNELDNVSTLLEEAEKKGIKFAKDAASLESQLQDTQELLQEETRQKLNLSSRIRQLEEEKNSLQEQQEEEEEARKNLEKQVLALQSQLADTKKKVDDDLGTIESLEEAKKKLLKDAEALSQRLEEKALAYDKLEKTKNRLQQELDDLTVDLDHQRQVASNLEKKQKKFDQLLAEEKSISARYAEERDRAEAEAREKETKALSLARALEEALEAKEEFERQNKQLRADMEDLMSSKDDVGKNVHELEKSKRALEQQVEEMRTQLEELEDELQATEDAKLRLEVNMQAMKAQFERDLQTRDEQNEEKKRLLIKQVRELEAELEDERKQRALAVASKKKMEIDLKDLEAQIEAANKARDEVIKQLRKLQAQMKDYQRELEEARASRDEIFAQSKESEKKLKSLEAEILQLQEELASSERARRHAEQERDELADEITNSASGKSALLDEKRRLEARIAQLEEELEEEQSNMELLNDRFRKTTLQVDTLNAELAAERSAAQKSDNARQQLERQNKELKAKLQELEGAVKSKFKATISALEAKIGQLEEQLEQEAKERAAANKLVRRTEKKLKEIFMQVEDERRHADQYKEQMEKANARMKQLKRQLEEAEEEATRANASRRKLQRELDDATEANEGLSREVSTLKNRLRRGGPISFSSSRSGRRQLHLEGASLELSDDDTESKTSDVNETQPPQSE

In the experiment the target is Flag-tagged c-Mpl C-terminal domain (UniProt P40238). Description: affinity purification with mass spectrometry; Flag-tagged c-Mpl C-terminal domain expressed in HEK-293T cells, precipitated with an anti-Flag antibody; silver-stained gel, proteins identified by mass spectrometry.

Turning to “Kif11 (endogenous) (from UniProt P52732 1-1056)”, the binding entry is “binds”. With “Myosin-10 (endogenous) (from UniProt P35580 1-1976)” the entry was “binds”.

Source of the values: PMC12442642.
